## Cleaved PARP after 72 h of treatment

Values as published with doi:10.1371/journal.pone.0140310, rounded.

Every entry is a combination with veliparib at 7 µM: C[C@]1(c2nc3c(C(N)=O)cccc3[nH]2)CCCN1

Drug key:
OSI-906: C[C@]1(O)C[C@@H](c2nc(-c3ccc4ccc(-c5ccccc5)nc4c3)c3c(N)nccn32)C1 at 2 µM
lapatinib: CS(=O)(=O)CCNCc1ccc(-c2ccc3ncnc(Nc4ccc(OCc5cccc(F)c5)c(Cl)c4)c3c2)o1 at 4 µM
BI-D1870: CC(C)CCN1c2nc(Nc3cc(F)c(O)c(F)c3)ncc2N(C)C(=O)C1C (centres undefined) at 1 µM
LFM-A13: C/C(O)=C(\C#N)C(=O)Nc1cc(Br)ccc1Br at 10 µM
SNS-032: CC(C)(C)c1cnc(CSc2cnc(NC(=O)C3CCNCC3)s2)o1 at 0.05 µM
AZD7762: NC(=O)Nc1cc(-c2cccc(F)c2)sc1C(=O)N[C@H]1CCCNC1 at 0.1 µM
AS-252424: O=C1NC(=O)/C(=C/c2ccc(-c3ccc(F)cc3O)o2)S1 at 5 µM
KU-0063794: COc1ccc(-c2ccc3c(N4CCOCC4)nc(N4C[C@@H](C)O[C@@H](C)C4)nc3n2)cc1CO at 0.1 µM
perifosine: CCCCCCCCCCCCCCCCCCOP(=O)([O-])OC1CC[N+](C)(C)CC1 at 2 µM
CX-4945: O=C(O)c1ccc2c(c1)nc(Nc1cccc(Cl)c1)c1ccncc12 at 2 µM
GW9662: O=C(Nc1ccccc1)c1cc([N+](=O)[O-])ccc1Cl at 10 µM
embelin: CCCCCCCCCCCC1=C(O)C(=O)C=C(O)C1=O at 6 µM
L-779450: Oc1cc(-c2nc(-c3ccccc3)[nH]c2-c2ccncc2)ccc1Cl at 1 µM
MK-2206: NC1(c2ccc(-c3nc4ccn5c(=O)[nH]nc5c4cc3-c3ccccc3)cc2)CCC1 at 2 µM
cediranib: COc1cc2c(Oc3ccc4[nH]c(C)cc4c3F)ncnc2cc1OCCCN1CCCC1 at 2 µM
lenalidomide: Nc1cccc2c1CN(C1CCC(=O)NC1=O)C2=O (centres undefined) at 5 µM
MK-1775: C=CCn1c(=O)c2cnc(Nc3ccc(N4CCN(C)CC4)cc3)nc2n1-c1cccc(C(C)(C)O)n1 at 0.1 µM
U73122: COc1ccc2c(c1)CCC1C2CCC2(C)C(NCCCCCCN3C(=O)C=CC3=O)CCC12 (centres undefined) at 2 µM
tamatinib: COc1cc(Nc2ncc(F)c(Nc3ccc4c(n3)NC(=O)C(C)(C)O4)n2)cc(OC)c1OC at 2 µM
dorsomorphin: c1cc(-c2cnn3cc(-c4ccc(OCCN5CCCCC5)cc4)cnc23)ccn1 at 2 µM
selumetinib: Cn1cnc2c(F)c(Nc3ccc(Br)cc3Cl)c(C(=O)NOCCO)cc21 at 0.075 µM
CP-690550: C[C@@H]1CCN(C(=O)CC#N)C[C@@H]1N(C)c1ncnc2[nH]ccc12 at 5 µM
vismodegib: CS(=O)(=O)c1ccc(C(=O)Nc2ccc(Cl)c(-c3ccccn3)c2)c(Cl)c1 at 5 µM
dasatinib: Cc1nc(Nc2ncc(C(=O)Nc3c(C)cccc3Cl)s2)cc(N2CCN(CCO)CC2)n1 at 0.02 µM
nilotinib: Cc1cn(-c2cc(NC(=O)c3ccc(C)c(Nc4nccc(-c5cccnc5)n4)c3)cc(C(F)(F)F)c2)cn1 at 1 µM
tozasertib: Cc1cc(Nc2cc(N3CCN(C)CC3)nc(Sc3ccc(NC(=O)C4CC4)cc3)n2)n[nH]1 at 0.03 µM
vorinostat: O=C(CCCCCCC(=O)Nc1ccccc1)NO at 0.4 µM
PF-562271: CN(c1ncccc1CNc1nc(Nc2ccc3c(c2)CC(=O)N3)ncc1C(F)(F)F)S(C)(=O)=O at 0.4 µM
IMD-0354: O=C(Nc1cc(C(F)(F)F)cc(C(F)(F)F)c1)c1cc(Cl)ccc1O at 0.08 µM
vatalanib: Clc1ccc(Nc2nnc(Cc3ccncc3)c3ccccc23)cc1 at 10 µM
bexarotene: C=C(c1ccc(C(=O)O)cc1)c1cc2c(cc1C)C(C)(C)CCC2(C)C at 10 µM
SNS-314: O=C(Nc1cccc(Cl)c1)Nc1ncc(CCNc2ncnc3ccsc23)s1 at 0.004 µM
ENMD-2076: Cc1cc(Nc2cc(N3CCN(C)CC3)nc(/C=C/c3ccccc3)n2)n[nH]1 at 0.2 µM
GW441756: Cn1cc(/C=C2\C(=O)Nc3cccnc32)c2ccccc21 at 2 µM
decitabine: Nc1ncn([C@H]2C[C@H](O)[C@@H](CO)O2)c(=O)n1 at 0.5 µM
GSK650394: O=C(O)c1ccc(-c2c[nH]c3ncc(-c4ccccc4)cc23)cc1C1CCCC1 at 0.8 µM
CHIR-265: Cn1c(Nc2ccc(C(F)(F)F)cc2)nc2cc(Oc3ccnc(-c4ncc(C(F)(F)F)[nH]4)c3)ccc21 at 0.4 µM

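The test systems are human melanoma cell lines, treated with a pair of drugs for 72 h and then stained and imaged. The read-out is the fraction of cleaved-PARP-positive nuclei, in % of that fraction in the DMSO control; 200 means twice the control level of this apoptosis marker. Every drug was used at one fixed concentration, the higher of two screened. The file gives one value for each pair and line, without errors, so small differences may be noise. The marker varies much from line to line, for technical or biological reasons.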
This is part of the screen, not chosen by result.
An entry leaves out what has no value listed here.
A dash means that no value is listed here.

Second drug	RVH-421	UACC-257	SK-MEL-30	A375	COLO 800	MZ2-MEL
CX-4945	79.9	55.0	91.3	571	74.0	236
cediranib	51.8	80.3	133	-	368	-
PF-562271	68.0	29.9	204	49.7	282	306
vatalanib	64.7	42.9	82.9	65.4	52.2	99.4
tozasertib	80.7	250	66.1	69.1	121	355
BI-D1870	87.5	17.4	59.2	42.2	263	159
GW441756	319	54.6	57.5	73.2	116	45.4
perifosine	53.5	29.5	107	140	122	55.3
GW9662	61.2	103	103	28.4	316	156
MK-2206	163	64.1	151	102	42.6	73.7
KU-0063794	52.3	37.5	165	253	676	76.8
selumetinib	138	56.1	134	70.1	197	290
lapatinib	39.7	67.8	101	104	146	-
SNS-314	74.0	39.6	190	-	118	390
AS-252424	95.9	31.9	75.7	92.0	97.1	71.2
SNS-032	113	57.2	88.6	-	401	116
L-779450	95.4	56.9	97.9	175	81.6	85.8
decitabine	256	174	171	225	147	123
AZD7762	35.1	35.9	552	-	211	115
bexarotene	122	57.2	59.8	175	168	116
embelin	71.1	15.3	118	35.1	43.5	70.8
GSK650394	104	89.7	111	-	58.1	135
tamatinib	93.0	135	102	-	241	232
nilotinib	69.6	36.7	173	56.7	64.0	91.1
LFM-A13	175	59.0	123	208	83.4	169
lenalidomide	244	76.1	84.8	90.7	127	137
dorsomorphin	104	24.9	75.4	106	79.1	273
U73122	108	52.3	175	347	118	92.8
ENMD-2076	122	22.1	241	211	268	101
IMD-0354	85.3	24.3	95.6	61.8	144	-
vorinostat	220	170	96.8	-	105	51.1
CP-690550	71.3	35.2	33.7	-	59.9	354
OSI-906	58.1	123	98.0	66.9	443	110
vismodegib	125	22.2	81.7	64.6	143	84.2
MK-1775	91.8	84.3	208	-	359	49.6
CHIR-265	69.3	51.2	135	83.7	161	228
dasatinib	97.4	86.1	27.5	34.6	267	-

The last 4 entries again:

{"second drug": "vismodegib", "RVH-421": 125, "UACC-257": 22.2, "SK-MEL-30": 81.7, "A375": 64.6, "COLO 800": 143, "MZ2-MEL": 84.2}
{"second drug": "MK-1775", "RVH-421": 91.8, "UACC-257": 84.3, "SK-MEL-30": 208, "COLO 800": 359, "MZ2-MEL": 49.6}
{"second drug": "CHIR-265", "RVH-421": 69.3, "UACC-257": 51.2, "SK-MEL-30": 135, "A375": 83.7, "COLO 800": 161, "MZ2-MEL": 228}
{"second drug": "dasatinib", "RVH-421": 97.4, "UACC-257": 86.1, "SK-MEL-30": 27.5, "A375": 34.6, "COLO 800": 267}